PubChem BioAssay AID1159578, Peter MacCallum Cancer Centre, 2015
Test: 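Genome-wide hunt for genes controlling movement of lymphatic endothelial cells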 (primary screen). Cell system: human lymphatic endothelial cells. Knock-down reagent: siRNA pool against human genes, 40 nM. Timing: 48 h after transfection. Detection: 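High-content imaging of dye-stained cells in a scratch assay measures filled wound area and nuclei per well; duplicate means given as ratio to mock and robust z-score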. Reading the numbers: migration robust z-score: higher = faster migration into the scratch; nuclei per well: higher = more cells in the well. Active means: 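Migration changed when robust z exceeds 2 or falls below -2 and mean nuclei number is at least 3300; otherwise not called changed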. Calls: active = migration changed; inactive = no migration change, or too few cells.
The deposit covers about 18,000 reagents; shown is a random part of them. About 1,030 of them (5.7%) count as active. 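Inactive calls also include pools with fewer than 3300 nuclei, whose migration was not assessed.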 Raw values vary from plate to plate and are shown uncorrected. Not all columns of the deposit are shown.

For RRP15 (GeneID 51018), what does the deposit list?
migration robust z-score: -0.3; nuclei per well, duplicate mean: 6032; activity call: inactive

What did the screen give for PCED1A (GeneID 64773)?
migration robust z-score: -0.28; nuclei per well, duplicate mean: 6961; activity call: inactive

For FIP1L1 (GeneID 81608), what does the deposit list?
migration robust z-score: 1.08; nuclei per well, duplicate mean: 5364; activity call: inactive

For ZNF33B (GeneID 7582), how do the results read?
migration robust z-score: -0.69; nuclei per well, duplicate mean: 4444; activity call: inactive

With TP53TG3 (GeneID 24150), how do the results read?
migration robust z-score: -0.2; nuclei per well, duplicate mean: 6541; activity call: inactive

How did the screen score PRDX4 (GeneID 10549)?
migration robust z-score: -0.8; nuclei per well, duplicate mean: 6688; activity call: inactive

With H3-3B (GeneID 3021), what was measured?
migration robust z-score: -0.3; nuclei per well, duplicate mean: 5799; activity call: inactive

For LIPH (GeneID 200879), what does the deposit list?
migration robust z-score: 0.9; nuclei per well, duplicate mean: 6176; activity call: inactive

What is on record for ADAMTS4 (GeneID 9507)?
migration robust z-score: -1.45; nuclei per well, duplicate mean: 5438; activity call: inactive

Which result is listed for UST (GeneID 10090)?
migration robust z-score: -0.88; nuclei per well, duplicate mean: 5007; activity call: inactive

What did the screen give for THAP11 (GeneID 57215)?
migration robust z-score: 1.02; nuclei per well, duplicate mean: 5426; activity call: inactive

Which result is listed for AP3B2 (GeneID 8120)?
migration robust z-score: -1.25; nuclei per well, duplicate mean: 5890; activity call: inactive

No new results follow: 2 of the entries above.
THAP11 (GeneID 57215) — migration robust z-score = 1.02; nuclei per well, duplicate mean = 5426; activity call = inactive
AP3B2 (GeneID 8120) — migration robust z-score = -1.25; nuclei per well, duplicate mean = 5890; activity call = inactive
